Some results were stated once for a whole list of compounds, not compound by compound.
Tests used:
[1] = test system: Peronospora parasitica; experiment: In vivo test on Peronospora parasitica (crucifer downy mildew), cabbage plants; settings: dose of 500 ppm, preventive spray 24 hours before contamination, grading 5 days after contamination
[2] = test system: Phytophthora infestans; assay type: in vivo; settings: dose of 500 ppm; tomato plants, preventive spray 24 hours before contamination; grading 5 days after contamination
[3] = test system: Plasmopara viticola; experiment: In vivo test on Plasmopara viticola (vine downy mildew), vine plants; settings: dose of 500 ppm, preventive spray 24 hours before contamination, grading 7 to 8 days after contamination

Measured: good protection

Cc1ccc(C(=NOCc2cccc(N)n2)n2nnnc2C)s1 [Compound 124]
at least 70%: all assays above

Cc1nnnn1C(=NOCc1csc(NC(=O)NCCc2ccccc2)n1)c1ccsc1 [Compound 24]
at least 70%: all assays above

CCCCCOC(=O)Nc1cccc(CON=C(c2ccc(C)s2)n2nnnc2C)n1 [Compound 126]
at least 70%: all assays above

CCCCCNC(=O)Nc1nc(CON=C(c2ccsc2)n2nnnc2C)cs1 [Compound 22]
at least 70%: all assays above

Cc1nnnn1C(=NOCc1csc(NC(=O)C2CC2)n1)c1ccc(Cl)s1 [Compound 101]
at least 70%: all assays above

Cc1nnnn1C(=NOCc1cccc(N)n1)c1ccsc1 [Compound 19]
at least 70%: all assays above

Reference: patent publication US8119645B2, “Fungicide hydroximoyl-tetrazole derivatives” (Bayer Cropscience AG, priority 2006, dated 2012)
